According to US20210275683A1:
Numbering of substitutions follows the chain as printed. In names and notes the source's numbering stands. These are yes or no findings as the source states them, for the method shown. Some binding calls cover weakened binding; strength is not graded here. One block for each binder: values may come before it.

Sequences of proteins named here, by UniProt entry; tags and fusion partners are left off. Residues count along the entry.
UniProt Q96NY8, residues 32-510: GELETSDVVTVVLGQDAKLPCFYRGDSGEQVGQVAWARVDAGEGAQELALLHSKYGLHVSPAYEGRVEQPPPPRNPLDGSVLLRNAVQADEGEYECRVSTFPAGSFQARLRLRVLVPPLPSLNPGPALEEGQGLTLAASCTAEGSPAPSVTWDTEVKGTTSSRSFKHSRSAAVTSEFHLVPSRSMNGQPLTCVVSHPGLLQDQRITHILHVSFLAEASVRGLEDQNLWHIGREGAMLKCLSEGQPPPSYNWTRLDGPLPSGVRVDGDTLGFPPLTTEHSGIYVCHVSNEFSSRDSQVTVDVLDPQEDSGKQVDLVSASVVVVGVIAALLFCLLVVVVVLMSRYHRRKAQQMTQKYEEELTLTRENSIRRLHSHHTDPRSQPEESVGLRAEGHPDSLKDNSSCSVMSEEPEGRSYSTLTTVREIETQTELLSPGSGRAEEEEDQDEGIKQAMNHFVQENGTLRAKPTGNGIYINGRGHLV

Legend:
[1] = target: Nectin-4 on T24 tumor cells (stable clone made by Nectin4-lentiviral transduction) (UniProt Q96NY8); assay: flow cytometry blocking assay on Nectin-4 expressing T24 cells; blocked ligand rhTIGIT-Fc at 40 nM, detected with PE anti-human Fc
[2] = target: cynomolgus Nectin-4 on transfected HEK-293 cells (cynomolgus); assay: flow cytometry on HEK-293 cells transfected with cynomolgus Nectin-4, anti-huIgG1-PE
[3] = target: cynomolgus Nectin-4 on transfected HEK-293 cells (cynomolgus); assay: flow cytometry on transfected HEK-293 cells (FIG. 1B)

B1: hzD6.2C-mIgG2a (anti-Nectin-4 antibody with the binding domain of hzD6.2C on mouse IgG2a) (antibody, V domains shown)
VH: EVQLVESGGGLVQPGGSLRLSCAASGFTFSNYDMSWVRQAPGKGLEWVATISSGGSYTYYVDSVKGRFTISRDNAKNSLYLQMNSLRAEDTAVYYCARQELGSYYAMDYWGQGTTVTVSS
VL: DIVMTQTPLSLPVTPGEPASISCRSSQSIVHSNANTYLEWYLQKPGQSPQLLIYKVSNRFSGVPDRFSGSGSGTDFTLKISRVEAEDVGVYYCFQGSHVPYTFGGGTKVEIK
- binding [1]: binds

B2: humanized D6C mAb with hzD6.2C VL (G34A), human IgG1 / human kappa (antibody, V domains shown)
VH: B1 VH
VL: DIVMTQTPLSLPVTPGEPASISCRSSQSIVHSNANTYLEWYLQKPGQSPQLLIYKVSNRFSGVPDRFSGSGSGTDFTLKISRVEAEDVGVYYCFQGSHVPYTFGGGTKVEIKR
- binding [2]: binds
- binding [3]: binds

B3: D6C parental chimeric anti-Nectin-4 antibody (D6C IgG1) (antibody, V domains shown)
VH: EVMLVESGGALVKPGGSLKLSCVASGFTFSNYDMSWVRQTPEKRLEWVATISSGGSYTYYVDSVKGRFTISRDNARNTLHLQMSSLRSKDTAMYYCARQELGSYYAMDYWGQGTSVTVSS
VL: B1 VL with I2V, T14S, P15L, E17D, P18Q, A34G, Q50K, V88L, V109L
- binding [2]: binds
- binding [3]: binds

Results, then the binder that gave them:

- binding [2]: binds
- binding [3]: binds
B4: hzD6.2C-Compound 2.14 (anti-Nectin-4-TLR8 agonist immunoconjugate) (antibody, V domains shown)
VH: B1 VH
VL: B2 VL

- binding [2]: binds
- binding [3]: binds
B5: D6C IgG1-Compound 2.14 (parental antibody TLR8 agonist conjugate) (antibody, V domains shown)
VH: B3 VH
VL: B1 VL with I2V, T14S, P15L, E17D, P18Q, A34G, Q50K, V88L, V109L

- binding [2]: binds
- binding [3]: binds
B6: humanized D6C mAb with hzD6.1C VL (I2V), human IgG1 / human kappa (antibody, V domains shown)
VH: B1 VH
VL: B2 VL with I2V, A34G

- binding [2]: binds
- binding [3]: binds
B7: hzD6.1C-Compound 2.14 (anti-Nectin-4-TLR8 agonist immunoconjugate) (antibody, V domains shown)
VH: B1 VH
VL: B2 VL with I2V, A34G
